Experimental data as given in publication PMC4670963.
No constants are given. Whether binding was seen depends on the method and setting. In cells and extracts the contact can be indirect. Some results given as binding are weak or reduced against the parent protein; the word gives no strength. For some assays here: Sequences can lack the tags named with a protein.

By UniProt entry, the sequences of proteins in these tests, tags left out. Residues count along the entry.
UniProt P08151: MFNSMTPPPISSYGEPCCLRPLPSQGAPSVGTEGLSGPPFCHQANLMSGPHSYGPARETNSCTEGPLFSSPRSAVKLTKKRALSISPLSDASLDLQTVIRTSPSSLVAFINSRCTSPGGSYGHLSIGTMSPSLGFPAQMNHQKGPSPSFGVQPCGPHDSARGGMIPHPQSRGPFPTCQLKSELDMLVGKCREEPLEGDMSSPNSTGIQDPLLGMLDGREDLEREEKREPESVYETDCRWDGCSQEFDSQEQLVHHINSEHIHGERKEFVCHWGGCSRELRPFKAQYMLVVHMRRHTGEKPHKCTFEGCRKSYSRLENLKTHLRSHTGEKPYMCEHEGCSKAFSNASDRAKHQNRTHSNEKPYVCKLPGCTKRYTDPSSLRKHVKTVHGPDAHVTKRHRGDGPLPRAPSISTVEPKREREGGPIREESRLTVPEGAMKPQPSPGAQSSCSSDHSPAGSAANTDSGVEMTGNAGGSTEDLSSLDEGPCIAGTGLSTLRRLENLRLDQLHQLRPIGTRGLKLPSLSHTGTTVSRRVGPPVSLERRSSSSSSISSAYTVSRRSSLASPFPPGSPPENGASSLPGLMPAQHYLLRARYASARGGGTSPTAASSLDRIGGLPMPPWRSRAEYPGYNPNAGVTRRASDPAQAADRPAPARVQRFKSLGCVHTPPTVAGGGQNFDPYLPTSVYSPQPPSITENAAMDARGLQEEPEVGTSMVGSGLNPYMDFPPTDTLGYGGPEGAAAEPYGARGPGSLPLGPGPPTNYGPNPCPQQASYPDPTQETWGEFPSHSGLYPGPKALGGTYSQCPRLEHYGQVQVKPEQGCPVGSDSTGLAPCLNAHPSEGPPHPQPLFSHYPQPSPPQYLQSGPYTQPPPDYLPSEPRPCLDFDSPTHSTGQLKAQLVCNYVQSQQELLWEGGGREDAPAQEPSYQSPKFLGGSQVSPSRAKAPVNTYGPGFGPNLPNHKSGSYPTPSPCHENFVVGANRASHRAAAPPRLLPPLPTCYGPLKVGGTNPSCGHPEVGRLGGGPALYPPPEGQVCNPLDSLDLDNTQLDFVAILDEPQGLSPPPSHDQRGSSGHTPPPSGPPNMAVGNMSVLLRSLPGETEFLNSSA
UniProt P08631, residues 22-526: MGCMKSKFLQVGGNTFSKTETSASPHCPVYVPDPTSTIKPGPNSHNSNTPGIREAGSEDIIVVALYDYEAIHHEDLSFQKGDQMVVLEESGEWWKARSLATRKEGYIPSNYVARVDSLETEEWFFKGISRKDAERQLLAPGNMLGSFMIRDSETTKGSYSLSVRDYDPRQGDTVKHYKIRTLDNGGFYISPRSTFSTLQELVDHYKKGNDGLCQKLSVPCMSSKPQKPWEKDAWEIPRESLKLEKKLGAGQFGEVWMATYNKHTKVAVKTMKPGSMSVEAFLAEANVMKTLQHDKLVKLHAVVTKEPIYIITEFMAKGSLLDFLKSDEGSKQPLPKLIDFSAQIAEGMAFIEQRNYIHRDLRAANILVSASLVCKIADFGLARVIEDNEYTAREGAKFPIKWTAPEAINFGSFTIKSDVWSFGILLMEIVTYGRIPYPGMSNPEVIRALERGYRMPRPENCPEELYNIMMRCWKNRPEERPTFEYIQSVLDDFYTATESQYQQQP
UniProt P10070: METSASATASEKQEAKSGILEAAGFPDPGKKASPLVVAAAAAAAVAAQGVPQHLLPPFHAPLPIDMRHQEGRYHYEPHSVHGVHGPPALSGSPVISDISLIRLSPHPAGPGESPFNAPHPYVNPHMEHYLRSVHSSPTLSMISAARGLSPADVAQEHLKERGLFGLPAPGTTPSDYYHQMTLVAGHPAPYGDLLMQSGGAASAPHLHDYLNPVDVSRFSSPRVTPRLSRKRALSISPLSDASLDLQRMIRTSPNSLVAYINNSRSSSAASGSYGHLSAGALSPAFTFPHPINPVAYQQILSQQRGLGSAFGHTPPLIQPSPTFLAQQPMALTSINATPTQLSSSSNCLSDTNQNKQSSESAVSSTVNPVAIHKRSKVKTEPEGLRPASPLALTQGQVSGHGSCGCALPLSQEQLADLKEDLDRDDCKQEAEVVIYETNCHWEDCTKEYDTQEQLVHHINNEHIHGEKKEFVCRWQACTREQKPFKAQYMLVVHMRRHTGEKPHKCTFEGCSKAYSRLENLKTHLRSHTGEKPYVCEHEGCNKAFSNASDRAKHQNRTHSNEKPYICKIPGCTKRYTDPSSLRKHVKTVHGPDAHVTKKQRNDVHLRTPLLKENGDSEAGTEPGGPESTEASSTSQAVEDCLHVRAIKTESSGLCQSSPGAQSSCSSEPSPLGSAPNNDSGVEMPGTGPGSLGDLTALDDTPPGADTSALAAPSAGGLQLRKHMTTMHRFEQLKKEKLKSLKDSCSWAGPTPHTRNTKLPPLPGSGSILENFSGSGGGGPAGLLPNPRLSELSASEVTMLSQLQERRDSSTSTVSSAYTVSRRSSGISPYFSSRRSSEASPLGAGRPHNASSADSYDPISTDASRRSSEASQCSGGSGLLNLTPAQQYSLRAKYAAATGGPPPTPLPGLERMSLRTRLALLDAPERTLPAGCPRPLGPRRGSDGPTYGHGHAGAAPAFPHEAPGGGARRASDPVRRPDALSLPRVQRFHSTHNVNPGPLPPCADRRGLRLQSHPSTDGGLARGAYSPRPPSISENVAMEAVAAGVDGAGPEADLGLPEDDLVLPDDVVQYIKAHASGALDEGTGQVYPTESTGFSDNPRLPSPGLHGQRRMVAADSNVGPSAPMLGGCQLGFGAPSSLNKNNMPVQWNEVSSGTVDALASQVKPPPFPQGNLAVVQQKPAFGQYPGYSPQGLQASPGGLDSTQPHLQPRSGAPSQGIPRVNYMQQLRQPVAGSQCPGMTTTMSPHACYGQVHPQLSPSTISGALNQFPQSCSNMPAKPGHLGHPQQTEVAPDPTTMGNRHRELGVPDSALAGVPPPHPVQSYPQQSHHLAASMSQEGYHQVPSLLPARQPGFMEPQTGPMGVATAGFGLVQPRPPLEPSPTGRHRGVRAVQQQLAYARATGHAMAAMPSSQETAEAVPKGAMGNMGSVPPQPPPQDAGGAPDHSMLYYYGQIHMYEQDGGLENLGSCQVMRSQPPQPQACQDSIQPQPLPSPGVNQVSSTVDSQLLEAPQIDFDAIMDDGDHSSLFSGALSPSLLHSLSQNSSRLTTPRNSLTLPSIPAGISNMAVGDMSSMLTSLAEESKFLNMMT

Key:
Gli1-GFP (human) = Gli1-GFP (human) (UniProt P08151); test: co-IP; NIH3T3 cells transfected with Gli1-GFP and/or HA-Hck; lysate in 50 mM Tris pH 8.0, 150 mM NaCl, 1 mM EDTA, 1% Triton X-100; immunoprecipitated with anti-GFP, protein A beads, 4 °C overnight; western blot with anti-Gli1, anti-HA and 4G10
Flag-tagged Sufu = biological target: T1, Flag-tagged Sufu (UniProt Q9UMX1); test: co-IP; NIH3T3 cells transfected with HA-Gli1 or HA-Gli2 and Flag-Sufu, without exogenous Hck; immunoprecipitated with anti-Flag; western blot with anti-HA or anti-Flag; bands quantified with ImageJ against the input
T1 sequence: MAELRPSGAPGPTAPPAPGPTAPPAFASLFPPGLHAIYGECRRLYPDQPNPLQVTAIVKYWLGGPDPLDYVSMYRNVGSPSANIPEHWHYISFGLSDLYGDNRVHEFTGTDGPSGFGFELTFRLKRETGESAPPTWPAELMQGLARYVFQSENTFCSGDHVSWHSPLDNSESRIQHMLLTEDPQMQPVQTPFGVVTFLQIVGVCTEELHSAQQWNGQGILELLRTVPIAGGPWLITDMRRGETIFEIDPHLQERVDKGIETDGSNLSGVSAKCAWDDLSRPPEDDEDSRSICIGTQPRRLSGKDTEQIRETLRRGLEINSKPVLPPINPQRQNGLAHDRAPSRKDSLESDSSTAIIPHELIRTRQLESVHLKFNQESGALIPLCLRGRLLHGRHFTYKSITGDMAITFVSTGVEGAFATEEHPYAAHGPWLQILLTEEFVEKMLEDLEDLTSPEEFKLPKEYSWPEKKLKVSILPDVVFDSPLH

Substance	binding (Gli1-GFP (human))	binding (Flag-tagged Sufu)
HA-Hck (from UniProt P08631-2 1-505) (enzyme)	binds	–
HA-Gli2 (from UniProt P10070 1-1586)	–	binds
